Results deposited as PubChem BioAssay AID686943 (Drosophila RNAi Screening Center, 2013)
The screen tested about 23,000 reagents; shown is an unselected part of those that have a named target and a result. 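Extra replicates exist only for a retested subset of genes; insulin dose and duration not given; both raised and lowered dpERK matter.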 Not all columns of the deposit are shown. Reagent sequences are not shown. Not stated in the record: the amount of reagent, the time to read-out.

Aim: 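Knockdowns that increase or decrease active ERK after insulin receptor stimulation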 (primary screen)
Cells: Drosophila S2R+ haemocyte-like cells expressing YFP-tagged ERK (Rolled)
Reagents: long dsRNA against Drosophila genes
Challenge: insulin stimulation versus unstimulated cells; dose and duration not given
Read-out: 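Per-plate z-scores of phospho-ERK immunostaining normalised to YFP-tagged ERK, measured with and without insulin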
Scale: replicate 1, z-score of dpERK with insulin and replicate 2, z-score of dpERK with insulin: higher = more active ERK per ERK-YFP after insulin; replicate 1, z-score of dpERK under basal conditions: higher = more basal active ERK per ERK-YFP

The first 4 entries, to show the layout:
| predicted target | dsRNA | replicate 1, z-score of dpERK with insulin | replicate 2, z-score of dpERK with insulin | replicate 1, z-score of dpERK under basal conditions |
| --- | --- | --- | --- | --- |
| lolal | DRSC06948 | -1.82 | -0.18 | 0.51 |
| Debcl | DRSC04965 | -0.38 | 0.19 | -0.14 |
| Osi20 | DRSC12568 | -0.4 | 0.46 | 1.22 |
| prg | DRSC03324 | 0.36 | -0.77 | 0.22 |

The listing, from the first entry:
| predicted target | dsRNA | replicate 1, z-score of dpERK with insulin | replicate 2, z-score of dpERK with insulin | replicate 1, z-score of dpERK under basal conditions |
| --- | --- | --- | --- | --- |
| lolal | DRSC06948 | -1.82 | -0.18 | 0.51 |
| Debcl | DRSC04965 | -0.38 | 0.19 | -0.14 |
| Osi20 | DRSC12568 | -0.4 | 0.46 | 1.22 |
| prg | DRSC03324 | 0.36 | -0.77 | 0.22 |
| CG11269 | DRSC04094 | 0.78 | -0.11 | 0.13 |
| CG3916 | DRSC15520 | -0.28 | 0.3 | 0.42 |
| Ttc7 | DRSC04836 | -0.36 | -0.43 | -0.1 |
| CG13339 | DRSC06373 | 0.14 | -0.03 | 0.83 |
| CG17929 | DRSC15291 | 0.03 | -0.13 | -0.36 |
| eIF4G2 | DRSC14207 | 0.41 | 0.06 | -0.33 |
| eIF4G2 | DRSC21739 | 0.94 | -2.16 | -0.28 |
| CG1695 | DRSC20538 | -0.67 | 0.1 | -0.62 |
| CG11060 | DRSC06029 | 0.03 | 0.18 | -0.07 |
| Idgf3 | DRSC03351 | 0.7 | 0.1 | -0.03 |
| Cyp310a1 | DRSC03301 | 0.18 | -0.4 | -0.11 |
| CG6125 | DRSC15970 | -0.85 | -0.6 | 0.78 |
| CG5886 | DRSC15908 | 0.41 | -0.71 | 0.97 |
| CG17648 | DRSC00508 | 0.59 | 0.31 | -0.53 |
| CG33521 | DRSC17179 | 0.82 | 0.48 | -1.52 |
| CG33521 | DRSC17211 | 0.49 | -1.25 | -0.19 |
| CG33521 | DRSC22919 | 0.15 | -0.8 | -0.85 |
| Obp19d | DRSC20569 | -0.41 | 0.25 | 0.83 |
| Cdk5 | DRSC07359 | 0.95 | 0.75 | -0.99 |
| Max | DRSC11218 | -0.38 | -0.85 | -2.01 |
| Cyp6v1 | DRSC20565 | -0.08 | 1.11 | 0.15 |
| CG2712 | DRSC18589 | 0.62 | -0.12 | -0.58 |
| CG1537 | DRSC19662 | 0.6 | 0.08 | -0.4 |
| CG32147 | DRSC09346 | 0.99 | -0.36 | -0.66 |
| CG5611 | DRSC15843 | -0.23 | -1.38 | 2.47 |
| CG13699 | DRSC10048 | -1.59 | -0.41 | -0.8 |
| Rab3 | DRSC07523 | -0.19 | 0.87 | 1.24 |
| CG14563 | DRSC11724 | 0.96 | 0.26 | -0.89 |
| Pen | DRSC03396 | 0.9 | -0.06 | -0.11 |
| CG13893 | DRSC08363 | -0.5 | 0.03 | 0.48 |
| UGP | DRSC10411 | 0.48 | 0.14 | -1.54 |
| mRpL15 | DRSC11771 | 0.21 | -0.36 | 0.27 |
| CG13643 | DRSC14641 | -0.35 | 0 | 0.54 |
| CG13643 | DRSC14642 | 0.17 | -0.17 | 0.25 |
| ND-24L | DRSC10650 | 0.68 | -0.26 | -0.69 |
